Measured values taken from the supplement of paper PMC10060354, “Discovery of a small molecule ligand of FRS2 that inhibits invasion and tumor growth” (Cellular Oncology, 2022).
Repeats are few or missing, and single values can be far off.

Protein sequences, listed by entry. Tags and fused reporters are not part of them. Lines headed by an entry give the natural chain unless they say otherwise; changes in a name come on top.
UniProt Q13601: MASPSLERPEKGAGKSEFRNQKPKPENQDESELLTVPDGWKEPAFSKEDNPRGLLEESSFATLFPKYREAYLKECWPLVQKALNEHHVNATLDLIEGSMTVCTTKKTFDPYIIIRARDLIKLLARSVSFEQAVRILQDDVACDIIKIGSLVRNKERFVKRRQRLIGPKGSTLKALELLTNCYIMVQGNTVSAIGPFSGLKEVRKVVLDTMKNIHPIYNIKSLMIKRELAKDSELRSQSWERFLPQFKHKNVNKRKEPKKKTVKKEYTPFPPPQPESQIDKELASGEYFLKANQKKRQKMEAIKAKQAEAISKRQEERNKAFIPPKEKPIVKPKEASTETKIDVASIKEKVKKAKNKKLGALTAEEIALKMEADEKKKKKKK
UniProt Q9UBW8: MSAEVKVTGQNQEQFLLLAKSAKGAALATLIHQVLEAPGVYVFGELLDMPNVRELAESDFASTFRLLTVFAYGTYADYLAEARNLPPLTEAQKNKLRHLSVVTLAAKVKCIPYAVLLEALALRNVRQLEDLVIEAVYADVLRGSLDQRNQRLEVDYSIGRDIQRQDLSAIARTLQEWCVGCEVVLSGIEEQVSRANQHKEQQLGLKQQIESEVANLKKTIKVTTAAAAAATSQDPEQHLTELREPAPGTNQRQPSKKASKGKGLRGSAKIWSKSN
UniProt Q9UHN6: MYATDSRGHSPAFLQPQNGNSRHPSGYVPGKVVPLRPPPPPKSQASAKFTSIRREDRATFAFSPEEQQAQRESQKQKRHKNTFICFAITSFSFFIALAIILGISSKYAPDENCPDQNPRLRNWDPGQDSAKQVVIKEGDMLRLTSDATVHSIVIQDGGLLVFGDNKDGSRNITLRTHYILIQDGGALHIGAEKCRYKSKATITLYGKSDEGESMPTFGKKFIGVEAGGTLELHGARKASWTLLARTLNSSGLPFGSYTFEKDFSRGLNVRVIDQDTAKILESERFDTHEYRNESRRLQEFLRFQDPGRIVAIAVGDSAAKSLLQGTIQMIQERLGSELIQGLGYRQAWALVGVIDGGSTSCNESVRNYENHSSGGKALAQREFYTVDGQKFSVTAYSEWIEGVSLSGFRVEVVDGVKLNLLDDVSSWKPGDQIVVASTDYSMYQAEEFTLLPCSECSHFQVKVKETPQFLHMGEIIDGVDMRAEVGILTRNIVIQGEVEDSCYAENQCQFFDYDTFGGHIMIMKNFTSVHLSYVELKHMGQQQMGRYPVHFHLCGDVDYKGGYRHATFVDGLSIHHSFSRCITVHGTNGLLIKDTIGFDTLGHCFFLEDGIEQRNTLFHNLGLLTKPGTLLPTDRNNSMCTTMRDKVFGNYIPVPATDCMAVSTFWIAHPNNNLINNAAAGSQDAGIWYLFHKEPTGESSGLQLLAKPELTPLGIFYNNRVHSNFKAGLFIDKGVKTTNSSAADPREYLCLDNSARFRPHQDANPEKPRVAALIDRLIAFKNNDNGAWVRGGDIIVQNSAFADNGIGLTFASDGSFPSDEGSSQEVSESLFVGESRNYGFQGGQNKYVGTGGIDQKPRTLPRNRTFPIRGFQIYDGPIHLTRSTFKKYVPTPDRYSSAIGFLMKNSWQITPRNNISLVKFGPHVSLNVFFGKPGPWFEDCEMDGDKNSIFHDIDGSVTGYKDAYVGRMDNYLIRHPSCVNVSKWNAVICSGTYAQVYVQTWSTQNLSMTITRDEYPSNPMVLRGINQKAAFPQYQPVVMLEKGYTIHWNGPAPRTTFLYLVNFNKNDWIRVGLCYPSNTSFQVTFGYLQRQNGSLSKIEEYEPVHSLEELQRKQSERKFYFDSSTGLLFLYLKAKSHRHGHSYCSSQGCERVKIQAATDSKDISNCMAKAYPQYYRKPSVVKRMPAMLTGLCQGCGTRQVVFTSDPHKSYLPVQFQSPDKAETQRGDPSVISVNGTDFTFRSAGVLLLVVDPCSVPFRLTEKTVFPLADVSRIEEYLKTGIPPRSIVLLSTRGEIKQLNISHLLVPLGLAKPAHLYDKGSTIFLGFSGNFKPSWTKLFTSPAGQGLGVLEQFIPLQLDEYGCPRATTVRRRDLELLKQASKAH
UniProt Q9H1B7, whole entry: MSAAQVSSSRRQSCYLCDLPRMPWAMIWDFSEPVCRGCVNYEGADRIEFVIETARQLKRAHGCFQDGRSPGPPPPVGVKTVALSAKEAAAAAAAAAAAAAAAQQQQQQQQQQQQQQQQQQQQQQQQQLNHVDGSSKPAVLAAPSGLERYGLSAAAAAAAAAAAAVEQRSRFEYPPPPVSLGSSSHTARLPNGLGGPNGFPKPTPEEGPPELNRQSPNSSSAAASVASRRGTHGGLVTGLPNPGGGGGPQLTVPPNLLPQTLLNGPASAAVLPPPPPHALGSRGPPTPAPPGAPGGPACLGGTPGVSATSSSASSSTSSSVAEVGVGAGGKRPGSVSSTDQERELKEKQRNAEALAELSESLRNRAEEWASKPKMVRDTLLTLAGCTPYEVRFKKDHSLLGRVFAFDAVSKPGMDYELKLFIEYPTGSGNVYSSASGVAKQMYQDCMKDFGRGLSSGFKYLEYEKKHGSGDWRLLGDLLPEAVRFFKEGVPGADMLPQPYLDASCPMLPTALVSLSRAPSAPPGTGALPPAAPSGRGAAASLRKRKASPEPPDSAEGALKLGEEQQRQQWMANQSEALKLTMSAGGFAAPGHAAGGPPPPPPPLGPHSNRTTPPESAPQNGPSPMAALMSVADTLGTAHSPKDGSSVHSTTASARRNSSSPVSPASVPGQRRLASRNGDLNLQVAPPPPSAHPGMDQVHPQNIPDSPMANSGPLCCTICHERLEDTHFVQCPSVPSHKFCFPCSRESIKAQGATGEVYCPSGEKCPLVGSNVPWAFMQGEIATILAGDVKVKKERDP
UniProt Q16543: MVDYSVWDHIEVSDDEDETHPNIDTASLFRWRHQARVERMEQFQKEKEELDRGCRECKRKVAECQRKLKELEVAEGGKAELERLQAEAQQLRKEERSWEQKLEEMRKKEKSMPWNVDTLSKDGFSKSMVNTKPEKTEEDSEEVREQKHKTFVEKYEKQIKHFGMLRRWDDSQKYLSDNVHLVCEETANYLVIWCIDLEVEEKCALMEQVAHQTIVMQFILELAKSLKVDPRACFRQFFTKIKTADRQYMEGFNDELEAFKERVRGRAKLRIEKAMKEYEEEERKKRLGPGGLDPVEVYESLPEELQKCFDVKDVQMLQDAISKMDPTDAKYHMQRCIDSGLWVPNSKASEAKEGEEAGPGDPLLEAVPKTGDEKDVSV
UniProt Q9GZR7: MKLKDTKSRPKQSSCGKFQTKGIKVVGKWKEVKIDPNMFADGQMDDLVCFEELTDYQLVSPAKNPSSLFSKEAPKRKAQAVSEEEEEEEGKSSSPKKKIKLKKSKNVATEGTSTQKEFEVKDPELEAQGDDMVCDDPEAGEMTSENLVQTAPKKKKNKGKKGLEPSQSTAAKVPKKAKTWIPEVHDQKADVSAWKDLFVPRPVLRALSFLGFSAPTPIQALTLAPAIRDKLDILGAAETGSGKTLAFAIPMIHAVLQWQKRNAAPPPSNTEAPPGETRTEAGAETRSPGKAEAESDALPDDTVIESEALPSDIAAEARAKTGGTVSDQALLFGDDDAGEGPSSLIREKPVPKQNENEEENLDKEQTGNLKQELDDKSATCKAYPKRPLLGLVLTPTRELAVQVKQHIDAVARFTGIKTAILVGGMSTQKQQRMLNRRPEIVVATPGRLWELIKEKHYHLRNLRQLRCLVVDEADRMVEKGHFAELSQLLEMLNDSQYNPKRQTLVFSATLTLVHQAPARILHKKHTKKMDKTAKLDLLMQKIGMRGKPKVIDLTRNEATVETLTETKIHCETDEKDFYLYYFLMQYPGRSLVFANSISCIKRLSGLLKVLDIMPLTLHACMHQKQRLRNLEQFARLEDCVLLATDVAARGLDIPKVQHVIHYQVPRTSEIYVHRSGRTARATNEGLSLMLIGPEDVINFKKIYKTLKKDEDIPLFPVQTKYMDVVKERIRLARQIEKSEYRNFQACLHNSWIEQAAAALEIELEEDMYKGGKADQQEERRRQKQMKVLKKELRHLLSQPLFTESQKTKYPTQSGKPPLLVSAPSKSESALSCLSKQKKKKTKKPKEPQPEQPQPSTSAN
UniProt Q9Y3Y2: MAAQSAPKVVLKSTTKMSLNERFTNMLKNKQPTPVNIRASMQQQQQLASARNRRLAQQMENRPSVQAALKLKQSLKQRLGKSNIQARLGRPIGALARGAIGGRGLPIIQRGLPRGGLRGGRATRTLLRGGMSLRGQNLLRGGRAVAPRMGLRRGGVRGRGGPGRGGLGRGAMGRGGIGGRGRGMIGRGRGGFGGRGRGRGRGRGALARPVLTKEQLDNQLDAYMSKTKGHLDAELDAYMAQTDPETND
UniProt Q8IUH4: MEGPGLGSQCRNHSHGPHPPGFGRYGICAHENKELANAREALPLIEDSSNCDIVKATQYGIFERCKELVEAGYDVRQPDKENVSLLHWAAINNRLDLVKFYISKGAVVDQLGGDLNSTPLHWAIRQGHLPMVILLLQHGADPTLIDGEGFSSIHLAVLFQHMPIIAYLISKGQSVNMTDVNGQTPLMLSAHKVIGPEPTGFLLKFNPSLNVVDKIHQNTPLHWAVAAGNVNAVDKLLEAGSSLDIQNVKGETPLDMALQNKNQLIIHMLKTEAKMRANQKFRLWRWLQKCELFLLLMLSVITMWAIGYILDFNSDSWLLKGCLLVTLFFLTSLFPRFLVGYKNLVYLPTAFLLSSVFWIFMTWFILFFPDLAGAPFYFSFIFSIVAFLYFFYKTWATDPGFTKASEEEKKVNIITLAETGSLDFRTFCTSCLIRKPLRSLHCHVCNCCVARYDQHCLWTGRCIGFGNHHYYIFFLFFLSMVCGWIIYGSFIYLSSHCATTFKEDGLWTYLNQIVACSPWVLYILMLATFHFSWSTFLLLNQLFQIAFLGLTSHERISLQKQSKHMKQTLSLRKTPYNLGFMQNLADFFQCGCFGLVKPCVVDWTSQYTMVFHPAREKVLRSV
UniProt Q9UQ90: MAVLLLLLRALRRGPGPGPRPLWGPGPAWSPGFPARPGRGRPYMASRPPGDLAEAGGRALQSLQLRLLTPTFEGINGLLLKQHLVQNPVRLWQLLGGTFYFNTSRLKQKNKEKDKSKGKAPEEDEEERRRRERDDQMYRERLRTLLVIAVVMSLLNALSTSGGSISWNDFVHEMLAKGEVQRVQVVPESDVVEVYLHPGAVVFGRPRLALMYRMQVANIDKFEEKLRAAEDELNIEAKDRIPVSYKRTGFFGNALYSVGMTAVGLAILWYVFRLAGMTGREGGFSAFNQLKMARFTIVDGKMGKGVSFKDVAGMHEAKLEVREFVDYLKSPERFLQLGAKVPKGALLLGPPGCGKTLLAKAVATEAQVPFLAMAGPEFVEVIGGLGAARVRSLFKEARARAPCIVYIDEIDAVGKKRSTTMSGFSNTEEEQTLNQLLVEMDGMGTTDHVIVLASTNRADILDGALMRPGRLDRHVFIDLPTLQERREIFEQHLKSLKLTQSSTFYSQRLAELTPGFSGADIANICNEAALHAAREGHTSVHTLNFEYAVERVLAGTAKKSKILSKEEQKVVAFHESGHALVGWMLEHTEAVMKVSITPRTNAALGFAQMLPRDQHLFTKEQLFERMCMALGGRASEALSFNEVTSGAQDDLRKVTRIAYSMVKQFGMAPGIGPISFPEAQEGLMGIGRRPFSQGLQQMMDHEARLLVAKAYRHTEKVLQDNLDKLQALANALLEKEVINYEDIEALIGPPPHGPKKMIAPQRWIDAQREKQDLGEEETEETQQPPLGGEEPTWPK
UniProt Q16527: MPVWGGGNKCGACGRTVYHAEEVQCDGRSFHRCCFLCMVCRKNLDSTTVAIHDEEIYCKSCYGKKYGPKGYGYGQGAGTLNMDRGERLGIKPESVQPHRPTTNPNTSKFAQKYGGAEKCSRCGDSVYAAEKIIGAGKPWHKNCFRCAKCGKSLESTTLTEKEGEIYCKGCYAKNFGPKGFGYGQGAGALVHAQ
UniProt P31040: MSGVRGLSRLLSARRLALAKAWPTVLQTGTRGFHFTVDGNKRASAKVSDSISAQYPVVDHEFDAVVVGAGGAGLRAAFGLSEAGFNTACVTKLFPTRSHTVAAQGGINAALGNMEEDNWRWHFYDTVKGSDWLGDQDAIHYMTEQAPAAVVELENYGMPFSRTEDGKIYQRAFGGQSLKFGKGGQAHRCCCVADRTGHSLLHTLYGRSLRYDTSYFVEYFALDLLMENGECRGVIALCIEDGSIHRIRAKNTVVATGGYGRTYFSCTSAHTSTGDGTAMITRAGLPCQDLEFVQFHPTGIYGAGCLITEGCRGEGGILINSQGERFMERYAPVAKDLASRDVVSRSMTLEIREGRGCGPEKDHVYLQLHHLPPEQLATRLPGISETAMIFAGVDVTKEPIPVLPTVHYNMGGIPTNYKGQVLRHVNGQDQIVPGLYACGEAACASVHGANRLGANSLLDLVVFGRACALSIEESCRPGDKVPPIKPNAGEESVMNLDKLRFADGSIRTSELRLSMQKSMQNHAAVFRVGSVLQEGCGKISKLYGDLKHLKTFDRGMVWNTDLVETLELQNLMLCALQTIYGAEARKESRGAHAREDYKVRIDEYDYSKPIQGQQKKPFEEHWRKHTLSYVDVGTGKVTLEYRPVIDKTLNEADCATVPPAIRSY

Compound: [O-][N+](C(C1=C(C(O)=C2)NC(C(C=C3)=CC=C3Cl)C4C1C=CC4)=C2Cl)=O
Test: melting temperature shift (compound 7 minus DMSO); higher = compound stabilises the protein
Details: 10 µM
Experimental: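 Thermal proteome profiling (TMT mass spectrometry) in intact DAOY medulloblastoma cells or DAOY lysates treated with 10 µM compound 7 or DMSO, heated at 10 temperatures from 40.5 to 73.8 °C for 3 min. Melting curves were fitted with the Bioconductor TPP package, and the melting point difference between compound and vehicle is reported per protein (single curve per condition).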

[1] = system: intact DAOY cells, treatment time: 90 min, 37 °C
[2] = system: DAOY cell lysate, treatment time: 20 min, 4 °C

Target | melting temperature shift [1] | melting temperature shift [2]
CNNM3 (UniProt Q8NE01) | 0.285 °C | –
PAPSS1 (UniProt O43252) | -0.429 °C | -0.256 °C
CLCC1 (UniProt Q96S66) | 0.424 °C | 1.55 °C
ACAD8 (UniProt Q9UKU7) | 1.64 °C | -1.69 °C
UniProt Q16878 | -0.242 °C | –
PPP1R12A (UniProt O14974) | -0.686 °C | -0.465 °C
PSMA4 (UniProt P25789) | 1.56 °C | –
APOOL (UniProt Q6UXV4) | – | 0.375 °C
SEC24B (UniProt O95487) | 3.1 °C | 0.282 °C
BAG1 (UniProt Q99933) | -0.477 °C | 0.755 °C
NRBF2 (UniProt Q96F24) | 0.251 °C | -0.653 °C
TMEM189 (UniProt A5PLL7) | – | 3.75 °C
KRR1 (UniProt Q13601) | – | 1.28 °C
ANAPC4 (UniProt Q9UJX5) | – | 0.067 °C
MRRF (UniProt Q96E11) | -0.994 °C | 0.22 °C
UniProt Q9P289 | -1.01 °C | -0.315 °C
SGTA (UniProt O43765) | -0.236 °C | -1.83 °C
DRAP1 (UniProt Q14919) | – | 1.38 °C
UniProt Q96EM0 | -1.02 °C | -0.381 °C
NCAPD2 (UniProt Q15021) | -0.807 °C | -0.226 °C
UniProt Q59GN2 | 1.57 °C | –
LNP (UniProt Q9C0E8) | 0.571 °C | 2.55 °C
UniProt P12074 | – | 1.45 °C

Target | melting temperature shift [1] | melting temperature shift [2]
CRKL (UniProt P46109) | 0.113 °C | -0.514 °C
TRMT112 (UniProt Q9UI30) | 1.33 °C | -0.0341 °C
UniProt P50440 | 0.848 °C | -0.00519 °C
AMFR (UniProt Q9UKV5) | – | 2.6 °C
UniProt Q9BQ04 | 0.604 °C | –
COPS7A (UniProt Q9UBW8) | 0.156 °C | -1 °C
TMEM2 (UniProt Q9UHN6) | -3.27 °C | -0.797 °C
NUP58 (UniProt Q9BVL2) | 1.57 °C | -0.022 °C
UniProt Q9H9S3 | -1.31 °C | –
UniProt Q05655 | – | -0.575 °C
SLFN5 (UniProt Q08AF3) | -2.1 °C | -0.113 °C
IRF2BPL (UniProt Q9H1B7) | -1.88 °C | -1.46 °C
WDSUB1 (UniProt Q8N9V3) | – | -0.321 °C
GATSL2 (UniProt A6NHX0) | -0.914 °C | -0.409 °C
WDR92 (UniProt Q96MX6) | -1.05 °C | 0.303 °C
RNGTT (UniProt O60942) | -0.708 °C | -1.03 °C
CDC37 (UniProt Q16543) | 0.216 °C | -1.6 °C
UniProt P09016 | – | 4.36 °C
UniProt O00214 | 1.51 °C | 0.791 °C
EXD2 (UniProt Q9NVH0) | -0.191 °C | 2.7 °C
LMNB2 (UniProt Q03252) | 2.17 °C | –
KNSTRN (UniProt Q9Y448) | -0.252 °C | -1.93 °C
UniProt O15111 | -0.332 °C | -1.48 °C

Target | melting temperature shift [1] | melting temperature shift [2]
PGM3 (UniProt O95394) | 0.643 °C | -0.558 °C
RPS2 (UniProt P15880) | -0.835 °C | -0.282 °C
COA1 (UniProt Q9GZY4) | 0.451 °C | 0.254 °C
UniProt Q8TB92 | -0.572 °C | –
NHLRC2 (UniProt Q8NBF2) | 0.324 °C | 0.572 °C
UniProt P62072 | – | -6.69 °C
DDX24 (UniProt Q9GZR7) | 2.84 °C | 0.892 °C
POLE (UniProt Q07864) | – | -0.994 °C
RBMS1 (UniProt P29558) | -0.138 °C | 0.591 °C
EFEMP1 (UniProt Q12805) | -0.732 °C | 1.15 °C
UniProt Q7Z769 | -5.76 °C | 0.87 °C
RPS6KA1 (UniProt Q15418) | -0.292 °C | -1.49 °C
SAP18 (UniProt O00422) | 2.56 °C | -0.72 °C
NCAPH (UniProt Q15003) | -0.803 °C | -0.519 °C
OXR1 (UniProt Q8N573) | 0.0739 °C | -0.622 °C
LRPAP1 (UniProt P30533) | – | -1.14 °C
STRBP (UniProt Q96SI9) | 0.15 °C | 1.32 °C
MPDZ (UniProt O75970) | 0.683 °C | -1.54 °C
TFB2M (UniProt Q9H5Q4) | -0.778 °C | -0.0255 °C
DDX5 (UniProt P17844) | -0.175 °C | 0.609 °C
GSTK1 (UniProt Q9Y2Q3) | -0.144 °C | 1.17 °C
EIF4G3 (UniProt O43432) | -0.118 °C | -0.713 °C
UniProt P21675 | – | -1.59 °C

Target | melting temperature shift [1] | melting temperature shift [2]
FDFT1 (UniProt P37268) | 0.148 °C | 1.17 °C
ANAPC2 (UniProt Q9UJX6) | – | -0.185 °C
UniProt Q8NFD5 | 0.228 °C | -0.532 °C
LMAN1 (UniProt P49257) | -0.117 °C | 1.45 °C
UniProt Q15773 | 0.703 °C | 1 °C
B4GAT1 (UniProt O43505) | – | 1.27 °C
ULK3 (UniProt Q6PHR2) | – | -0.755 °C
SRRM2 (UniProt Q9UQ35) | -1.02 °C | 0.567 °C
ARL6IP4 (UniProt Q66PJ3) | -0.208 °C | 1.22 °C
UniProt M0R2J8 | 0.702 °C | -0.647 °C
HOMER3 (UniProt Q9NSC5) | – | -2.82 °C
THOP1 (UniProt P52888) | -0.0154 °C | -1.37 °C
GABPB1 (UniProt Q06547) | -0.687 °C | -1.06 °C
CHTOP (UniProt Q9Y3Y2) | 0.314 °C | 1.3 °C
UniProt Q8N988 | – | 0.174 °C
ZDHHC13 (UniProt Q8IUH4) | – | 0.856 °C
UniProt Q8WWZ3 | – | -2.2 °C
RABEP2 (UniProt Q9H5N1) | -0.33 °C | -0.684 °C
MED8 (UniProt Q96G25) | – | -1.5 °C
PDS5A (UniProt Q29RF7) | -2.09 °C | -0.0533 °C
HAUS6 (UniProt Q7Z4H7) | -2.39 °C | -0.366 °C
UniProt O75145 | 0.00924 °C | –
MARK1 (UniProt Q9P0L2) | 0.545 °C | -4.05 °C

Target | melting temperature shift [1] | melting temperature shift [2]
YY1 (UniProt P25490) | 0.526 °C | 1.64 °C
ASNS (UniProt P08243) | -1.18 °C | -0.097 °C
CHMP3 (UniProt Q9Y3E7) | -0.562 °C | -0.872 °C
C11ORF54 (UniProt Q9H0W9) | -2.37 °C | -0.238 °C
SPATA5 (UniProt Q8NB90) | -0.963 °C | 0.608 °C
RBM14 (UniProt Q96PK6) | -1.11 °C | 0.21 °C
UniProt P53803 | 0.141 °C | 2.21 °C
GTF2B (UniProt Q00403) | -1.19 °C | 0.838 °C
UniProt Q9NRB3 | – | 0.504 °C
SPG7 (UniProt Q9UQ90) | – | -1.2 °C
DDAH2 (UniProt O95865) | 0.543 °C | 0.246 °C
CSRP2 (UniProt Q16527) | – | 0.389 °C
ACADSB (UniProt P45954) | -1.25 °C | 0.147 °C
SLC25A6 (UniProt P12236) | 1.39 °C | 2.37 °C
ACOT13 (UniProt Q9NPJ3) | -0.752 °C | 0.83 °C
RUVBL2 (UniProt Q9Y230) | 0.557 °C | -1.21 °C
THEM4 (UniProt Q5T1C6) | -0.553 °C | 0.456 °C
SMARCA5 (UniProt O60264) | -0.211 °C | 0.117 °C
SAMM50 (UniProt Q9Y512) | 0.305 °C | 1.12 °C
SNU13 (UniProt P55769) | 0.0334 °C | 0.0388 °C
SDHA (UniProt P31040) | 0.29 °C | 1.91 °C

Looked up one by one from above, five records:
Target | melting temperature shift [1] | melting temperature shift [2]
RBM14 (UniProt Q96PK6) | -1.11 °C | 0.21 °C
CHMP3 (UniProt Q9Y3E7) | -0.562 °C | -0.872 °C
RUVBL2 (UniProt Q9Y230) | 0.557 °C | -1.21 °C
ACOT13 (UniProt Q9NPJ3) | -0.752 °C | 0.83 °C
SPG7 (UniProt Q9UQ90) | – | -1.2 °C

Exported in CSV form: part of the list above
Target,melting temperature shift [1],melting temperature shift [2]
SPG7 (UniProt Q9UQ90),–,-1.2 °C
DDAH2 (UniProt O95865),0.543 °C,0.246 °C
CSRP2 (UniProt Q16527),–,0.389 °C
